Data source: PubChem BioAssay AID1259254 (NCATS, 2017)

Aim: 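Gene knock-downs that lead to re-replication, shown by excess G2 DNA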 (primary screen)
System: human HCT116 colorectal cancer cells
Knock-down reagent: single siRNA against human genes
Duration: 3 days
Read-out: 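Nuclei stained with Hoechst and imaged; cell-cycle phase assigned by DNA content; G2 share scaled per plate, non-targeting siRNA 0%, GMNN siRNA 100%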
Scale: G2 robust z-score and G2 cells, % of GMNN control: higher = more G2 cells, more excess DNA replication
Hit rule: 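An siRNA counts as active if its G2 robust z-score lies at least 5 MADs above the screen median; here such calls match roughly 38% of GMNN control or more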
In all, the deposit lists about 59,000 reagents; shown is a part drawn at random. In the full data, about 1,550 (2.6%) got an active call. 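G2 share is only a proxy for re-replication; each gene was hit by three separate siRNAs, and active genes were retested.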 Unmarked entries are inactive. The numbers tell different reagents against one gene apart. Further read-outs or replicates are left out here. Reagent sequences are not shown. The record does not give: the amount of reagent.

RPSA (ribosomal protein SA) #1 — G2 robust z-score = 1.05; G2 cells, % of GMNN control = 10.3
RPSA (ribosomal protein SA) #2 — G2 robust z-score = 2.32; G2 cells, % of GMNN control = 19.3
RPSA (ribosomal protein SA) #3 — G2 robust z-score = 0.104; G2 cells, % of GMNN control = 3.7
LRPAP1 (LDL receptor related protein associated protein 1) #1 — G2 robust z-score = -0.992; G2 cells, % of GMNN control = -4.01
LRPAP1 (LDL receptor related protein associated protein 1) #2 — G2 robust z-score = 0.819; G2 cells, % of GMNN control = 8.73
LRPAP1 (LDL receptor related protein associated protein 1) #3 — G2 robust z-score = -0.696; G2 cells, % of GMNN control = -1.93
LYL1 (LYL1 basic helix-loop-helix family member) #1 — G2 robust z-score = -0.234; G2 cells, % of GMNN control = 1.32
LYL1 (LYL1 basic helix-loop-helix family member) #2 — G2 robust z-score = 1.35; G2 cells, % of GMNN control = 12.4
LYL1 (LYL1 basic helix-loop-helix family member) #3 — G2 robust z-score = 1.25; G2 cells, % of GMNN control = 11.7
PIAS1 (protein inhibitor of activated STAT 1) #1 — G2 robust z-score = 0.357; G2 cells, % of GMNN control = 5.48
PIAS1 (protein inhibitor of activated STAT 1) #2 — G2 robust z-score = -0.442; G2 cells, % of GMNN control = -0.139
PIAS1 (protein inhibitor of activated STAT 1) #3 — G2 robust z-score = -0.291; G2 cells, % of GMNN control = 0.921

Continued (3 carried over from the part before).
PIAS1 (protein inhibitor of activated STAT 1) #1 — G2 robust z-score = 0.357; G2 cells, % of GMNN control = 5.48
PIAS1 (protein inhibitor of activated STAT 1) #2 — G2 robust z-score = -0.442; G2 cells, % of GMNN control = -0.139
PIAS1 (protein inhibitor of activated STAT 1) #3 — G2 robust z-score = -0.291; G2 cells, % of GMNN control = 0.921
MMP23B (matrix metallopeptidase 23B) #1 — G2 robust z-score = 6.03 (active); G2 cells, % of GMNN control = 45.4
MMP23B (matrix metallopeptidase 23B) #2 — G2 robust z-score = -1.22; G2 cells, % of GMNN control = -5.62
MMP23B (matrix metallopeptidase 23B) #3 — G2 robust z-score = -0.851; G2 cells, % of GMNN control = -3.02
OTUD5 (OTU deubiquitinase 5) #1 — G2 robust z-score = 0.147; G2 cells, % of GMNN control = 4
OTUD5 (OTU deubiquitinase 5) #2 — G2 robust z-score = -0.846; G2 cells, % of GMNN control = -2.99
OTUD5 (OTU deubiquitinase 5) #3 — G2 robust z-score = 3.96; G2 cells, % of GMNN control = 30.8
TCEAL7 (transcription elongation factor A like 7) #1 — G2 robust z-score = -1.44; G2 cells, % of GMNN control = -7.17
TCEAL7 (transcription elongation factor A like 7) #2 — G2 robust z-score = -0.618; G2 cells, % of GMNN control = -1.38
TCEAL7 (transcription elongation factor A like 7) #3 — G2 robust z-score = -0.538; G2 cells, % of GMNN control = -0.82
CCDC91 (coiled-coil domain containing 91) #1 — G2 robust z-score = -0.975; G2 cells, % of GMNN control = -3.89
CCDC91 (coiled-coil domain containing 91) #2 — G2 robust z-score = 1.27; G2 cells, % of GMNN control = 11.9
CCDC91 (coiled-coil domain containing 91) #3 — G2 robust z-score = 2.83; G2 cells, % of GMNN control = 22.9
